# The supplement of paper PMC7666118
# The other results are listed elsewhere or left out.
# Tests used:
# [1] = target: VKORC1 (UniProt Q9BQB6); test: dose-dependent thermal stabilisation call (2D-TPP, DLPTP, 10% FDR) (binary (1 = stabilised)); higher = stabilised by the compound; details: system: HL-60 intact cells; concentration range 0.04-10 µM
# [2] = target: T1, VKORC1L1 (UniProt Q8N0U8); test: as above; details: system: HL-60 intact cells; concentration range 0.04-10 µM
# T1 sequence (whole entry): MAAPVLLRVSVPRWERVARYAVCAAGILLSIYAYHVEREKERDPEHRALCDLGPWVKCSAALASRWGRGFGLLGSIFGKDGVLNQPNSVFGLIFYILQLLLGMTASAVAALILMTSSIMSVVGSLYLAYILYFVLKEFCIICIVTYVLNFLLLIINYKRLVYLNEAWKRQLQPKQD
compound,measurement,setting,value
COc1ccc(Cn2ccc3ccc(C(=O)NO)cc32)cc1,dose-dependent thermal stabilisation call,[1],inactive: 0
same,dose-dependent thermal stabilisation call,[2],inactive: 0
